The series can be described thus: in vivo. The following applies: oral, 50 mg/kg, male wister rats (7 weeks old), bioassay (Escherichia coli SC507). Type of series: in vivo. How it is done: Male wister rats (7 weeks old) were administered orally with the test compound, and the change of the concentration of the compound in blood was measured.
Dosage of the test compound:
Quantitative method: Bioassay
(test bacterium: Escherichia coli SC507)

`CC1=C(C(=O)O)N2C(=O)[C@@H](NC(=O)[C@H](N)c3ccccc3)[C@H]2SC1` [YY, Cefalexin, reference compound] had a Concentration in blood (One Hour, 60 min) of 17870 ng/mL. Under “rat, blood, Four Hours”, this molecule gave a concentration at 4 h of 6710 ng/mL. For the setting “rat, blood, Two Hours”, the concentration at 2 h was 18900 ng/mL.

For the origin of these results see patent US4841044A, “Cephalosporin derivatives” (Taisho Pharmaceutical Co., Ltd., priority 1985, dated 1989).
